# Measurements: PubChem BioAssay AID504834 (National Center for Advancing Translational Sciences (NCATS), 2011)
# Out of some 320,000 compounds screened, about 22,000 (6.9%) were called active. Inconclusive means that the source gave no clear call. Such entries were picked first, then a sample of the others. Calls follow the shape of the dose curve; as a rule, active = well fitted inhibition curve with a large enough effect; inconclusive = small, poorly fitted or top-dose-only effect, or another doubt; inactive = no such curve, though single readings can be large or run the other way. Potencies of inconclusive entries are doubtful fits and often do not repeat.
# Experiment: Primary qHTS for delayed death inhibitors of the malarial parasite plastid, 96 hour incubation
# Conditions: P. falciparum luciferase reporter growth; series mostly up to 28.7 µM
# How it was run: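 P. falciparum expressing integrated firefly luciferase, in erythrocytes at 2% hematocrit, 0.05% parasitemia, incubated with compounds 96 h at 37 C, 5% CO2. Growth inhibition read as loss of luminescence; two-generation exposure targets delayed-death apicoplast inhibitors.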
# % is scaled to controls: 0 for no effect and ±100 for the full control effect; potency is read from the fitted curve at half-maximal effect.
SMILES,Potency,"activity change, negative = inhibition"
O=C1CCCC(=O)C1C1c2ccccc2CCN1C(=O)CCl (stereo not drawn),"inconclusive: 18.5 µM [inhibitor, single point]",–
Cc1cc(NCc2ccncc2)ccc1Br,"inconclusive: 18.5 µM [inhibitor, single point]",–
O=P(O)(c1ccccc1)c1ccccc1O,active: 11.7 µM,–
O=C(Nc1ccccc1)NC1CCCc2ccccc21 (stereo not drawn),inactive,–
CNC(=O)c1ccc(-n2cccn2)nc1,inactive,–
CCc1nnc(NC(=O)c2sc3nc(C)cc(COC)c3c2N)s1,"inconclusive: 2.33 µM [inhibitor, full curve, poor fit]",–
COc1ccc(NC(=O)NNC(=O)CCc2ccc(O)c(O)c2)cc1OC,inactive,–
CCN(CC)CCCNC(=O)c1csc(Nc2cccc3ccccc23)n1,"inconclusive: 18.5 µM [inhibitor, single point]",–
CCC1=NN(C(=O)c2ccc(C)cc2)C(O)(c2ccc(Br)cc2)C1 (stereo not drawn),active: 13.1 µM,–
COc1ccc(-c2nc3ccccc3n2Cc2ccccc2)cc1,"inconclusive: 13.1 µM [inhibitor, partial curve, poor fit]",–
COc1ccccc1NS(=O)(=O)c1cc(NC(=O)CCC2CCCC2)ccc1N1CCOCC1,"inconclusive: 5.22 µM [inhibitor, partial curve]",–
CC(NC(=O)c1cc(-c2ccccn2)nc2ccc(Cl)cc12)C1CCCO1 (stereo not drawn),"inconclusive: 18.5 µM [inhibitor, single point]",–
COc1ccc2cc(-c3cccnc3)ncc2c1,inactive,–
Cc1ccccc1NC(=O)/C(C#N)=C/c1ccc[nH]1,active: 11.7 µM,–
COc1cc(CN2CCCCCC2)cc(OC)c1OC,inactive,–
CC(/C=N/n1c(-c2ccccn2)n[nH]c1=S)=C\c1ccccc1,"inconclusive: 18.5 µM [inhibitor, single point]",–
O=C(Nc1ccc(NC(=O)C23CC4CC(CC(C4)C2)C3)cn1)c1ccco1,"inconclusive: 10.4 µM [inhibitor, partial curve, poor fit]",–
O=C(Nc1ccccc1N1CCCCC1)C1=COCCO1,"inconclusive: 11.7 µM [inhibitor, single point]",–
COc1ccc(NC(=S)NCc2ccccc2Cl)c(OC)c1,inactive,–
CCc1ccc(NC(=O)c2ccc(OC)c([N+](=O)[O-])c2)cc1,"inconclusive: 18.5 µM [inhibitor, single point]",–
Cc1ccc(S(=O)(=O)N2CCCN(S(=O)(=O)C3CCS(=O)(=O)C3)CC2)cc1 (stereo not drawn),"inconclusive: 7.38 µM [inhibitor, partial curve, poor fit]",–
Cc1ccc(-c2noc(C3CCCN(C(=O)c4ccccc4)C3)n2)o1 (stereo not drawn),–,inactive: -1.15% [at 5.75 µM]
Cc1ccc2nc3c(cc(C#N)c(=N)n3CC3CCCO3)c(=O)n2c1 (stereo not drawn),"inconclusive: 10.4 µM [inhibitor, single point]",–
O=C(O)COc1ccccc1/C=N/NC(=O)CSc1nc2ccccc2n1Cc1ccccc1,"inconclusive: 14.7 µM [inhibitor, partial curve, poor fit]",–

# Molecules above containing a cyano group (2):
SMILES,Potency,"activity change, negative = inhibition"
Cc1ccccc1NC(=O)/C(C#N)=C/c1ccc[nH]1,active: 11.7 µM,–
Cc1ccc2nc3c(cc(C#N)c(=N)n3CC3CCCO3)c(=O)n2c1 (stereo not drawn),"inconclusive: 10.4 µM [inhibitor, single point]",–

# Next compounds:

SMILES,Potency,"activity change, negative = inhibition"
CC(C)(C)c1cc(CSC(=S)NC2CCS(=O)(=O)C2)c(Br)c(C(C)(C)C)c1 (stereo not drawn),"inconclusive: 7.38 µM [inhibitor, partial curve, poor fit]",–
Cc1nn(-c2ccccn2)c2c1C(c1c(F)cccc1Cl)C1=C(N2)c2ccccc2C1=O (stereo not drawn),active: 9.28 µM,–
OC(COC(c1ccc(F)cc1)c1ccc(F)cc1)CN1CCc2ccccc2C1 (stereo not drawn),"inconclusive: 18.5 µM [inhibitor, single point]",–
O=C(c1ccc2c(c1)OCO2)N1CCCC1,inactive,–
Cc1nn(C)cc1/C=N/NC(=O)c1ccco1,inactive,–
COC(=O)C1=C(c2ccccc2OCc2ccccc2)C[C@@H]2CC[C@H]1N2C(=O)NCCN1CCOCC1,active: 4.65 µM,–
Cc1ccc(-n2ccc(-c3nn(-c4ccccc4)ccc3=O)n2)cc1,active: 7.38 µM,–
O=c1[nH]c(=O)n(-c2cccc3ccccc23)c(O)c1C=NCCCn1ccnc1,"inconclusive: 11.7 µM [inhibitor, single point]",–
O=C(NCCN1CCOCC1)c1ccc(-c2ccccc2)cc1,inactive,–
Nc1ccc(S(=O)(=O)Nc2ccc(C(=O)c3ccccc3)cc2)cc1,inactive,–
COc1cc(/C=C2/C(=O)NN(c3cccc(Cl)c3)C2=O)cc(OC)c1O,"inconclusive: 13.1 µM [inhibitor, single point]",–
CCOC(=O)CN(C(=O)CSc1nnc(-c2cccc(OC)c2)o1)c1ccc(F)cc1,"inconclusive: 11.7 µM [inhibitor, single point]",–
CCCCn1c(=O)[nH]c(=O)c2c1nc(-c1cc(Br)ccc1OC)n2C,"inconclusive: 18.5 µM [inhibitor, single point]",–
COc1ccc(C(=O)/C=C(\C)Nc2ccc(NC(C)=O)cc2)cc1,inactive,–
CCc1ccc([C@@H]2CC=C(C(=O)O)CN2S(=O)(=O)c2ccc(C)cc2)cc1,inactive,–
CN(C)c1ccc(C(C(=O)NCc2ccccc2)N(Cc2cccnc2)C(=O)c2snc(C(N)=O)c2N)cc1 (stereo not drawn),active: 13.1 µM,–
COc1ccc(C(=O)NC2CCCCCC2)cc1S(=O)(=O)N1CCOCC1,inactive,–
Cc1ccc(N2CCN(C(=O)N3CCOCC3)CC2)c(C)c1,"inconclusive: 18.5 µM [inhibitor, single point]",–
CCCCc1ccc(NC(=O)CSc2nnc(CNC(=O)c3ccco3)o2)cc1,"inconclusive: 11.7 µM [inhibitor, single point]",–
Cc1ccc(NC(=O)CN(C)CC(=O)Nc2ccc(N3CCOCC3)cc2)cc1F,inactive,–
CC(C)N(C(=O)CSc1nnc(NC2CC2)s1)c1ccccc1,"inconclusive: 7.38 µM [inhibitor, partial curve]",–
Fc1ccccc1COc1ccc(C(=S)N2CCCC2)cc1,"inconclusive: 4.65 µM [inhibitor, partial curve]",–
O=C(NS(=O)(=O)Nc1ccc(Br)cn1)c1c[nH]c2ccccc12,inactive,–
COC(=O)c1ccc(C23CC4(C2)[C@H](CN(Cc2ccc(-c5ccccc5)cc2)[C@@H]4c2ccccc2)C3c2ccc(C(F)(F)F)cc2)cc1 (stereo partly drawn),"inconclusive: 18.5 µM [inhibitor, single point]",–
